Patent US20080057529A1, “Method for Identifying Histone Deacetylase Inhibitors” (priority 2003, published 2008)
For at least one compound, name, drawing or mass did not settle the structure.

Key:
clone 1.17 cells = experiment: Growth inhibition, CYTOSTAR 14C-thymidine uptake; type: cell-based, human; conditions: clone 1.17 cells treated for 48 hours
Protocol: Cells were seeded in a CYTOSTAR-T plate at about 7000 to 10000 cells per well in 100 μL of complete DMEM and incubated 4 hours at 37° C., 5% CO2. Next, 25 μL per well of HDAC inhibitor or DMSO (vehicle control) 5× solutions in complete DMEM was added to the wells along with 5 μL per well of ^14C-thymidine diluted 1:3 in H2O (1.65 μL of thymidine per well, 55 mCi/mmol; 225 μCi/mg; 50 μCi/mL (10 μM final concentration) and incubated at 37° C., 5% CO2. Incorporation of ^14C-thymidine was monitored after 24, 48, and 72 hours by reading the plate in a Packard Instruments TOP-COUNT (CYTOSTAR ^14C method).

CMV promoter = experiment: Transient transfection of HeLa cells with CMV-BLA (pCMV-BLA) reporter plasmid, Bla staining (blue cells); type: cell-based, human; conditions: Table 3; 2 μg pCMV-BLA + 0.1 μg pCMV-Luc; 6 hr treatment; TSA 300 nM, Apicidin 1 μM
Protocol: The p21m-BLA reporter plasmid was tested in transient transfection experiments of HeLa cells to evaluate the responsiveness of the minimal p21 promoter and the Bla reporter system to known HDAC inhibitors. In the first two transfection experiments, HeLa cells were transfected with 1 or 2 μg of Bla reporter plasmid containing either p21 minimal promoter (p21m-BLA) or CMV promoter (CMV-BLA) and 0.1 μg of pCMV-Luc or pRSV-Luc control plasmids. Different DNA-FUGENE transfection reagent ratios were tested (FUGENE is available from Roche Applied Science, Indianapolis, Ind.). […] Data are summarized below in Tables 1 and 2.
The percentage of β-lactamase-positive cells increased with time independent of the presence of HDAC inhibitors and was constantly higher with p21m-BLA than with pCMV-BLA.
In light of the above, the lack of apparent Bla activation in the above transfection experiments might have been due to the high sensitivity of the method. Therefore, transient transfections in which an accurate titration of the reporter plasmid DNA were performed. The titration of the reporter plasmid included using amounts lower than was used above. […] The transient transfections were repeated and the result confirmed (Table 7).

Q: Nc1ccccc1NC(=O)c1ccc(CNC(=O)OCc2cccnc2)cc1 [MS27-275] was tested. Which EC50 (clone 1.17 cells) did it give?
A: The EC50 was 10 µM.

Q: Which results are given for CC(/C=C/C(=O)NO)=C\[C@@H](C)C(=O)c1ccc(N(C)C)cc1 [TSA, Trichostatin A]?
A: EC50 (clone 1.17 cells): 0.2 µM; % Blue cells (CMV promoter): 3_4
